These are yes or no findings as the source states them, for the method shown. In cells and extracts the contact can be indirect. Some results given as binding are weak or reduced against the parent protein; the word gives no strength. Tags and fused reporters may be left off the sequences shown.

Amino acid sequences for entries named in this document (tags omitted).
UniProt Q9Y2J4: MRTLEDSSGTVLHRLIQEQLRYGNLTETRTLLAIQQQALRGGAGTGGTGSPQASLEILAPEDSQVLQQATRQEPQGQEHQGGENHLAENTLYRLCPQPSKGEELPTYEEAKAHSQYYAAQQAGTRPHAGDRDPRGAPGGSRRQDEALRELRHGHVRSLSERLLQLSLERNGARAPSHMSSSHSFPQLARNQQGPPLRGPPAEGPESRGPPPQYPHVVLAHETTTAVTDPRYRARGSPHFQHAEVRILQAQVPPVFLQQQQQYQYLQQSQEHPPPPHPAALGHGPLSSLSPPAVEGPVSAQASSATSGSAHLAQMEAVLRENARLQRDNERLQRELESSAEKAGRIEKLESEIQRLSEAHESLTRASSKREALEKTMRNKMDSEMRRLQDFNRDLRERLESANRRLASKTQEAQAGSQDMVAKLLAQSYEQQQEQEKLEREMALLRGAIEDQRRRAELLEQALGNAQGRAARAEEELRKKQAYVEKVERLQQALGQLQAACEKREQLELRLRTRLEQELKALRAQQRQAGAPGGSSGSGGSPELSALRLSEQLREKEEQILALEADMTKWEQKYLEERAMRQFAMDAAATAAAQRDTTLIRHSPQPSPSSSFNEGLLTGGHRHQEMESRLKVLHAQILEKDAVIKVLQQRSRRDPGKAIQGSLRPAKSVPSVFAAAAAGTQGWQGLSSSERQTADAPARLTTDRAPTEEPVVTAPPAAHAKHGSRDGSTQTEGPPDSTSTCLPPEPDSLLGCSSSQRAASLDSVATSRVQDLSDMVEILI

The test has as its target endogenous USP9x protein (human (endogenous in HEK293T)) (UniProt Q93008). As to the kind of experiment: co-IP; HA-tagged AMOT, AMOT-L1 or AMOT-L2 expressed in cells; IP of endogenous USP9x (Supplementary Figure S2a).

In the case of “HA-tagged AMOT-L2 (from UniProt Q9Y2J4 1-779)”, the binding result is reported as “binds”.

B1: HA-tagged AMOT-L1 (protein, UniProt Q8IY63 1-956)
chain: MWRAKLRRGTCEPAVKGSPSACYSPSSPVQVLEDSTYFSPDFQLYSGRHETSALTVEATSSIREKVVEDPLCNFHSPNFLRISEVEMRGSEDAAAGTVLQRLIQEQLRYGTPTENMNLLAIQHQATGSAGPAHPTNNFSSTENLTQEDPQMVYQSARQEPQGQEHQVDNTVMEKQVRSTQPQQNNEELPTYEEAKAQSQFFRGQQQQQQQQGAVGHGYYMAGGTSQKSRTEGRPTVNRANSGQAHKDEALKELKQGHVRSLSERIMQLSLERNGAKQHLPGSGNGKGFKVGGGPSPAQPAGKVLDPRGPPPEYPFKTKQMMSPVSKTQEHGLFYGDQHPGMLHEMVKPYPAPQPVRTDVAVLRYQPPPEYGVTSRPCQLPFPSTMQQHSPMSSQTSSASGPLHSVSLPLPLPMALGAPQPPPAASPSQQLGPDAFAIVERAQQMVEILTEENRVLHQELQGYYDNADKLHKFEKELQRISEAYESLVKSTTKRESLDKAMRNKLEGEIRRLHDFNRDLRDRLETANRQLSSREYEGHEDKAAEGHYASQNKEFLKEKEKLEMELAAVRTASEDHRRHIEILDQALSNAQARVIKLEEELREKQAYVEKVEKLQQALTQLQSACEKREQMERRLRTWLERELDALRTQQKHGNGQPANMPEYNAPALLELVREKEERILALEADMTKWEQKYLEESTIRHFAMNAAATAAAERDTTIINHSRNGSYGESSLEAHIWQEEEEVVQANRRCQDMEYTIKNLHAKIIEKDAMIKVLQQRSRKDAGKTDSSSLRPARSVPSIAAATGTHSRQTSLTSSQLAEEKKEEKTWKGSIGLLLGKEHHEHASAPLLPPPPTSALSSIASTTAASSAHAKTGSKDSSTQTDKSAELFWPSMASLPSRGRLSTTPAHSPVLKHPAAKGTAEKLENSPGHGKSPDHRGRVSSLLHKPEFPDGEMMEVLI
As for B1, the binding entry was “binds”.

The values are drawn from paper PMC4849470.
